From patent publication US7786097B2, “Tricyclic compounds, compositions and methods” (Pfizer Inc., priority 2007, dated 2010)
Some results were stated once for a whole list of compounds, not compound by compound.

Assay: Plasma exposure (AUC) in the mouse
Format: in vivo

Structure (SMILES) | AUC (0-4 hr) as share of the AUC (0-24 hr) values
Cc1ncccc1NC(=O)c1ccc2c(c1)CC[C@@H]1C[C@@](O)(C(F)(F)F)CC[C@@]21Cc1ccccc1 [Example 1, (4βS,7R,8αR)-4β-benzyl-7-hydroxy-N-(2-methylpyridin-3-yl)-7-(trifluoromethyl)-4β,5,6,7,8,8α,9,10-octahydrophenanthrene-2-carboxamide] | more than 95%
C[C@]12C=CC(=O)C=C1CC[C@@H]1[C@@H]2[C@@H](O)C[C@@]2(C)[C@H]1CC[C@]2(O)C(=O)CO [Prednisolone] | more than 95%
